Experimental data from the supplement of paper PMC6411743.
± gives the standard deviation of the averaged measurements. Only a part is listed here, and it is no random draw. Small differences around the control level are noise.

Sequences of proteins named here, by UniProt entry; tags and fusion partners are left off. A change or cut given only in a name is not applied to a line headed by its entry.
UniProt Q8IZD4: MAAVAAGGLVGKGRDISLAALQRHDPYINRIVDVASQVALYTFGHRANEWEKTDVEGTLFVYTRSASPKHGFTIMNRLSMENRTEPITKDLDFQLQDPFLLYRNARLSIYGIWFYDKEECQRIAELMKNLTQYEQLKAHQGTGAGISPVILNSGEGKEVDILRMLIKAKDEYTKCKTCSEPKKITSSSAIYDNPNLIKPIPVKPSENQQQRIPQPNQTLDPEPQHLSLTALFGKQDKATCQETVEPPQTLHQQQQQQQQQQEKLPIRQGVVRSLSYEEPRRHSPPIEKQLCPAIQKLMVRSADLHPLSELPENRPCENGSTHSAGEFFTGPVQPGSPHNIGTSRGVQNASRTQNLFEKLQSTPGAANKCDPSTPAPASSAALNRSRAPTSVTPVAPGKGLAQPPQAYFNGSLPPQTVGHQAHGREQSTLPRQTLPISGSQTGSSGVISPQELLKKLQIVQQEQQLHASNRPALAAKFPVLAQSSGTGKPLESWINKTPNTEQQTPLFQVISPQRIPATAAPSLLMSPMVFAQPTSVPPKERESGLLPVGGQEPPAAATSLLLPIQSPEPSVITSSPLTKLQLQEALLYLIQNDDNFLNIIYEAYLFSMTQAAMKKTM
UniProt Q8IY95: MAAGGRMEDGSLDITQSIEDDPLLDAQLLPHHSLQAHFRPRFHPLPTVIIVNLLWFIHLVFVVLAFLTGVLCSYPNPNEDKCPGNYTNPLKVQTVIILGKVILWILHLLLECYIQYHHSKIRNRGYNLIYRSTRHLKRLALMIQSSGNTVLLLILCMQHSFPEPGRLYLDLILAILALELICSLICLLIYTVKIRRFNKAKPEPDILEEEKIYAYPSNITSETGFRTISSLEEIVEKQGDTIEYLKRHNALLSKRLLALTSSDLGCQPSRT
UniProt Q86U90: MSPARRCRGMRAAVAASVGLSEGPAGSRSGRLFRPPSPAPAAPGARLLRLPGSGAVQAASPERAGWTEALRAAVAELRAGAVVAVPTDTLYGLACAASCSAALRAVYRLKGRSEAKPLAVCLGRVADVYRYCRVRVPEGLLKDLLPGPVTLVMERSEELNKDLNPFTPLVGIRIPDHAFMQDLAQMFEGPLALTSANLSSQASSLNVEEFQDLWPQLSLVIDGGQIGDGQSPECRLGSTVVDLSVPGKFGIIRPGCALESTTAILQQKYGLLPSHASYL
UniProt Q8N5G2: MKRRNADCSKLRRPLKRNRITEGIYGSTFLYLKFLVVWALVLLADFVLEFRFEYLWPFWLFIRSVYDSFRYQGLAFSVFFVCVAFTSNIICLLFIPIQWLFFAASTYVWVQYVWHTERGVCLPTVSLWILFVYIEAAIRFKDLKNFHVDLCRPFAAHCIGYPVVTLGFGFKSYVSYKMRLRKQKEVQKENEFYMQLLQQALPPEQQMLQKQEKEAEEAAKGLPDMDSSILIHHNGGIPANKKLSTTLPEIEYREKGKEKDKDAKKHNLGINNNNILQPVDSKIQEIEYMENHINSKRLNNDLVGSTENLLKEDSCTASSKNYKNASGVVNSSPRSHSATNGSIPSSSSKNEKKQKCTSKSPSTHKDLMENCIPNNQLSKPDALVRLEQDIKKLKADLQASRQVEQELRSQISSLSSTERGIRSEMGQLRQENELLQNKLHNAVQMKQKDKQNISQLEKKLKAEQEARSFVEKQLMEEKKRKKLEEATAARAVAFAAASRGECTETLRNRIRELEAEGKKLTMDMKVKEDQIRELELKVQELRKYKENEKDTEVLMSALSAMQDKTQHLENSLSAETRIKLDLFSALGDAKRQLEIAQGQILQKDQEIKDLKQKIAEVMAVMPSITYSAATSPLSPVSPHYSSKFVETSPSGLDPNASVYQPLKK
UniProt Q8IY81: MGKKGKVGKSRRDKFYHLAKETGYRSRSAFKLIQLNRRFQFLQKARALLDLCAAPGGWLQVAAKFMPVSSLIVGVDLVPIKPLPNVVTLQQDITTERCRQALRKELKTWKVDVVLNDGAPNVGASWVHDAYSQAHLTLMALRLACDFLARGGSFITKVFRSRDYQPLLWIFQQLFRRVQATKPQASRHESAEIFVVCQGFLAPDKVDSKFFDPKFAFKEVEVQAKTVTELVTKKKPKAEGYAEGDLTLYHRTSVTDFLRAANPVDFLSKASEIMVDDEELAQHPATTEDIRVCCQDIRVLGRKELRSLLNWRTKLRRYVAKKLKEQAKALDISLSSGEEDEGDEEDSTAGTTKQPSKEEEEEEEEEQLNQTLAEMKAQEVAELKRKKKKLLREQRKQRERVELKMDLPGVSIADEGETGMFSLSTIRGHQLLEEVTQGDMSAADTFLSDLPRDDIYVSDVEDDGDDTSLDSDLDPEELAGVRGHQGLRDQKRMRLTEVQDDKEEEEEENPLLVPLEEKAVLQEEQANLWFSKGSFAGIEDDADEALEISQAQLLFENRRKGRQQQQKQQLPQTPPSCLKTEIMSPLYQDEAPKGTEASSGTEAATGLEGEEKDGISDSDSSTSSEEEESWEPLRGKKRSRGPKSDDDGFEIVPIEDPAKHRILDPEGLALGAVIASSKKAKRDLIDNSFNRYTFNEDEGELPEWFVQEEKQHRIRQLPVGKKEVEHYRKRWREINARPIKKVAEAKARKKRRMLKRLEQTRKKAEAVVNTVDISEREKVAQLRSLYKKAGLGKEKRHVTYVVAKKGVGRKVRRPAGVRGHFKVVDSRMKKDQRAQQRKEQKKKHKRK
UniProt Q8NB16: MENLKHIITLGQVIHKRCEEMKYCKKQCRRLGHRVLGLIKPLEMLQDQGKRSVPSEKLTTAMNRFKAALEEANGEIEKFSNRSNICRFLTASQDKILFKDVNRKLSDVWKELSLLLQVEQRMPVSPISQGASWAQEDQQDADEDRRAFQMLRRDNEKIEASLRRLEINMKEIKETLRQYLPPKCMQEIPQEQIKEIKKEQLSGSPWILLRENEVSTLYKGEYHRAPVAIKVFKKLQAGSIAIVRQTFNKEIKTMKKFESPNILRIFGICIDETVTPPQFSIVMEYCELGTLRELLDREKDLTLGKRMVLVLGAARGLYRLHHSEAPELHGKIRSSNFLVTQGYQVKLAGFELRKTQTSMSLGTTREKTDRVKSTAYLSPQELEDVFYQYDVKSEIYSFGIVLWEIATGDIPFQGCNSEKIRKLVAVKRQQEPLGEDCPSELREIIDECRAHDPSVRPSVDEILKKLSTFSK
UniProt Q8NBL1: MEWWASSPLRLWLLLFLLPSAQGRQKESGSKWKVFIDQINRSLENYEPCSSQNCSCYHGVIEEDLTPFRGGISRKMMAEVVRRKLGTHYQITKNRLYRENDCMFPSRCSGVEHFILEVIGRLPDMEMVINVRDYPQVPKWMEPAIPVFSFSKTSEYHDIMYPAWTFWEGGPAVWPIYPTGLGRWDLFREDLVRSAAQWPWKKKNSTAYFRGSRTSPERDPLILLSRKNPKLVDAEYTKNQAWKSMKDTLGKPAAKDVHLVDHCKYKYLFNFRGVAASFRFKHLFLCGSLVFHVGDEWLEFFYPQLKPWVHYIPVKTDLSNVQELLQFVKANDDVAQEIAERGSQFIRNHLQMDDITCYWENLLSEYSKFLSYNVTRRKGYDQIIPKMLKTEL
UniProt Q7Z6L1: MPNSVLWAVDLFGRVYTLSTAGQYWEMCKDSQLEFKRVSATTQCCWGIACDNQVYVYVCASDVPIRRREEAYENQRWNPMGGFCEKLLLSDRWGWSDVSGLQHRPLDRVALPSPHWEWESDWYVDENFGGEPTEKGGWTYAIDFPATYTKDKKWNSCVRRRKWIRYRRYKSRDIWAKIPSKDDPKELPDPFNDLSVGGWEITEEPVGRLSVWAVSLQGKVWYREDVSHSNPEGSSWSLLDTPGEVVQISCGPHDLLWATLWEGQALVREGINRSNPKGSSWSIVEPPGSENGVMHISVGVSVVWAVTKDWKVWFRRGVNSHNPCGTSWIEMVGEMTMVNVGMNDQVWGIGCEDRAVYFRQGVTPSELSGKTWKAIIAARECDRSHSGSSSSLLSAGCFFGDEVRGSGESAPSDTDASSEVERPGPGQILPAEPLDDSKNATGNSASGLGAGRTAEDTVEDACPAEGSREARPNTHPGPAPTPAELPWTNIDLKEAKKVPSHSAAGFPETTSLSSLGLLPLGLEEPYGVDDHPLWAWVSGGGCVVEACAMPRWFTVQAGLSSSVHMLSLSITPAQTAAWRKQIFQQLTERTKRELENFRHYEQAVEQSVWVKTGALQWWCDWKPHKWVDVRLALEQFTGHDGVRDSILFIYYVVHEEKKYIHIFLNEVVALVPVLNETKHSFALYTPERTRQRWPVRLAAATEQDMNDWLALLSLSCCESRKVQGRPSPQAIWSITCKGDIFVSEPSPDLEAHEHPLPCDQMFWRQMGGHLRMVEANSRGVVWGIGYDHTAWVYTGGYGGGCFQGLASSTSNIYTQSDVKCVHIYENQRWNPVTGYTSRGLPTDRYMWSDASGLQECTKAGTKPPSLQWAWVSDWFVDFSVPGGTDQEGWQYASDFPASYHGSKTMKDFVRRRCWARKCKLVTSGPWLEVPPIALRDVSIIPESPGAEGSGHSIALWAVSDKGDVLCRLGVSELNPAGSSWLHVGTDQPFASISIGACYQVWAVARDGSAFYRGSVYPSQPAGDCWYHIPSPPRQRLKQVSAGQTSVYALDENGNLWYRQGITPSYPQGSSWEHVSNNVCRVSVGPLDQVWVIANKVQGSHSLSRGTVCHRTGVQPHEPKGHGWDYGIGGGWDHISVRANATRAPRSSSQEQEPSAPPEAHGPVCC
UniProt Q86SK9: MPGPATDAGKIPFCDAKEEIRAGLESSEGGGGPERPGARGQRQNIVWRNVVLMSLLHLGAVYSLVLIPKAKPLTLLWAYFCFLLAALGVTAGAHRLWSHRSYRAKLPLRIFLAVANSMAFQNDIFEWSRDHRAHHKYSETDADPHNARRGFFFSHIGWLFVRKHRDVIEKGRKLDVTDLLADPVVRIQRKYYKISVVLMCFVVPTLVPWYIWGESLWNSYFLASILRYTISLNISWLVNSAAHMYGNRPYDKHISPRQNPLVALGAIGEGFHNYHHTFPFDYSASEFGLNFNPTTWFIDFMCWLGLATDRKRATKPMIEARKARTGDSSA
UniProt Q86VP1, whole entry: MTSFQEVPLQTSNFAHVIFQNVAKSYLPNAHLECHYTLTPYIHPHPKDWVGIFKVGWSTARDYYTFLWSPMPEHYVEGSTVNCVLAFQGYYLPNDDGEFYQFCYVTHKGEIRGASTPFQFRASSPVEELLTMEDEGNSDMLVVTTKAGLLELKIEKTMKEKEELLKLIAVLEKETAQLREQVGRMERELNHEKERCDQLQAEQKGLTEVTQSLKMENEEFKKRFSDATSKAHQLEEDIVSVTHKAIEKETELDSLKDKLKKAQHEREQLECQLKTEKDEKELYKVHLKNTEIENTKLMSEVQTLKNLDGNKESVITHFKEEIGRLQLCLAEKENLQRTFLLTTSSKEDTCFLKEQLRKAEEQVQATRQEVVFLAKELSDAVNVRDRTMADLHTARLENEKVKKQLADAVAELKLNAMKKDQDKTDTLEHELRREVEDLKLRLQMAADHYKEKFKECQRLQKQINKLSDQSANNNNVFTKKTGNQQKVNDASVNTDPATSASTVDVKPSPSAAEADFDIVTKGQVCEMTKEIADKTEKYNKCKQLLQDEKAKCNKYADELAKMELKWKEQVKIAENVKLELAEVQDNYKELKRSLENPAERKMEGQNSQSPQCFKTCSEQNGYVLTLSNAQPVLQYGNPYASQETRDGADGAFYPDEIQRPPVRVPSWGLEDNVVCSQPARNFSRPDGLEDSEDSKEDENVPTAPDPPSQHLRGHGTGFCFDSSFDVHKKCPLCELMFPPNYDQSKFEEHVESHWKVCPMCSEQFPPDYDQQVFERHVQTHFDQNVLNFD
UniProt Q86UE8, whole entry, looked up: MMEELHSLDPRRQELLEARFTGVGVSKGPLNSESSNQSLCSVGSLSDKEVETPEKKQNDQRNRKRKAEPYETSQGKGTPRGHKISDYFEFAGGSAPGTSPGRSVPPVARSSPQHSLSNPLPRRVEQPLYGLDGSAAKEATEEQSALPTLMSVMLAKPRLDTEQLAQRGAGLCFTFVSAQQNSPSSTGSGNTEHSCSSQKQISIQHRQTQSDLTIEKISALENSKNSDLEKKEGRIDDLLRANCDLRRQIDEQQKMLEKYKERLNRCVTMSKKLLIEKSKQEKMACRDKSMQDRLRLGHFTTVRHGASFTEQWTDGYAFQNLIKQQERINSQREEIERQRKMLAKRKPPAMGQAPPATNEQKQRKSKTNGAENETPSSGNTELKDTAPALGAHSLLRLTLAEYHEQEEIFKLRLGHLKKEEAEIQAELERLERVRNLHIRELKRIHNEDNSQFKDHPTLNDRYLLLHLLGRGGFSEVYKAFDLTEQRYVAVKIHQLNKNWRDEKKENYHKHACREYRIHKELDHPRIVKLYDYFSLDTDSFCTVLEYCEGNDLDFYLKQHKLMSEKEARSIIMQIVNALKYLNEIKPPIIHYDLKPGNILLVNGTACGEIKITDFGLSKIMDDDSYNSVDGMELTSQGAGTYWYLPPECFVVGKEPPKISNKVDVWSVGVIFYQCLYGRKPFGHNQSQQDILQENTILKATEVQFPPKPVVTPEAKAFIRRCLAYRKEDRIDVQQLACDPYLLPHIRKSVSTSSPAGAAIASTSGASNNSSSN

Compound: Nc1ncnc2c1ncn2[C@@H]1O[C@H](COP(=O)(O)OP(=O)(O)NP(=O)(O)O)[C@@H](O)[C@H]1O [adenylyl imidodiphosphate]
Assay: NP40-soluble protein abundance relative to vehicle (solubility fold change) (ratio); higher = more soluble protein in presence of AMP-PNP
How it was run: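 Eight concentrations, 0.1 to 10 mM, were tested on Jurkat crude lysate for 10 min at room temperature and then 3 min at 37 °C, in three independent experiments. The lysate was solubilised with 0.8% NP40 and benzonase, ultracentrifuged, and the supernatant TMT-labelled for LC-MS/MS. Each value is the fold change against the detergent-processed vehicle in its own replicate, from vsn-normalised intensities.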

Question: With TTC39C (UniProt Q8N584) as the target, how does the NP40-soluble protein abundance (concentration: 0.1mM) read?
Answer: Its NP40-soluble protein abundance is 0.961 ± 0.018.

Question: And the NP40-soluble protein abundance (concentration: 0.5mM)?
Answer: Its NP40-soluble protein abundance is 0.984 ± 0.036.

Question: Which NP40-soluble protein abundance (concentration: 0.1mM) does the source give for DCP1B (UniProt Q8IZD4) here?
Answer: Its NP40-soluble protein abundance is 1.01 ± 0.015.

Question: What about the NP40-soluble protein abundance (concentration: 0.5mM) of the same target?
Answer: The NP40-soluble protein abundance was 0.964 ± 0.019.

Question: Which results are given for C5orf24 (UniProt Q7Z6I8)?
Answer: NP40-soluble protein abundance (concentration: 0.1mM): 0.973 ± 0.015; NP40-soluble protein abundance (concentration: 0.5mM): 0.99 ± 0.024

Question: With UniProt Q8IY95 and related entries as the target, how does the NP40-soluble protein abundance (concentration: 0.1mM) read?
Answer: Its NP40-soluble protein abundance is 0.989 ± 0.034.

Question: What about the NP40-soluble protein abundance (concentration: 0.5mM) of the same target?
Answer: Its NP40-soluble protein abundance is 1 ± 0.027.

Question: What does the source list for NUDCD3 (UniProt Q8IVD9)?
Answer: NP40-soluble protein abundance (concentration: 0.1mM): 0.961 ± 0.024; NP40-soluble protein abundance (concentration: 0.5mM): 1.03 ± 0.055

Question: Which results are given for YRDC (UniProt Q86U90)?
Answer: NP40-soluble protein abundance (concentration: 0.1mM): 0.996 ± 0.051; NP40-soluble protein abundance (concentration: 0.5mM): 1.03 ± 0.029

Question: What does the source list for UniProt Q8N5G2?
Answer: NP40-soluble protein abundance (concentration: 0.1mM): 0.962 ± 0.043; NP40-soluble protein abundance (concentration: 0.5mM): 0.946 ± 0.04

Question: Which NP40-soluble protein abundance (concentration: 0.1mM) does the source give for UniProt Q8IY17 and related entries here?
Answer: The NP40-soluble protein abundance was 1.03 ± 0.024.

Question: What about the NP40-soluble protein abundance (concentration: 0.5mM) of the same target?
Answer: Its NP40-soluble protein abundance is 1.03 ± 0.051.

Question: For EHBP1L1 (UniProt Q8N3D4), which NP40-soluble protein abundance (concentration: 0.1mM) is on record?
Answer: Its NP40-soluble protein abundance is 1.022 ± 0.0084.

Question: And the NP40-soluble protein abundance (concentration: 0.5mM)?
Answer: Its NP40-soluble protein abundance is 1.01 ± 0.068.

Question: For LIX1L (UniProt Q8IVB5), which NP40-soluble protein abundance (concentration: 0.1mM) is on record?
Answer: The NP40-soluble protein abundance was 0.9873 ± 0.0039.

Question: What about the NP40-soluble protein abundance (concentration: 0.5mM) of the same target?
Answer: The NP40-soluble protein abundance was 0.999 ± 0.019.

Question: Which NP40-soluble protein abundance (concentration: 0.1mM) does the source give for FTSJ3 (UniProt Q8IY81) here?
Answer: The NP40-soluble protein abundance was 0.982 ± 0.026.

Question: And the NP40-soluble protein abundance (concentration: 0.5mM)?
Answer: Its NP40-soluble protein abundance is 1 ± 0.058.

Question: For MLKL (UniProt Q8NB16), which NP40-soluble protein abundance (concentration: 0.1mM) is on record?
Answer: Its NP40-soluble protein abundance is 1.02 ± 0.033.

Question: And the NP40-soluble protein abundance (concentration: 0.5mM)?
Answer: The NP40-soluble protein abundance was 0.99 ± 0.027.

Question: Which results are given for UniProt Q8NBJ5?
Answer: NP40-soluble protein abundance (concentration: 0.1mM): 0.997 ± 0.025; NP40-soluble protein abundance (concentration: 0.5mM): 0.987 ± 0.029

Question: With UniProt Q8NBL1 as the target, how does the NP40-soluble protein abundance (concentration: 0.1mM) read?
Answer: The NP40-soluble protein abundance was 0.997 ± 0.019.

Question: What about the NP40-soluble protein abundance (concentration: 0.5mM) of the same target?
Answer: Its NP40-soluble protein abundance is 0.997 ± 0.016.

Question: Which results are given for UniProt Q86V48 and related entries?
Answer: NP40-soluble protein abundance (concentration: 0.1mM): 0.98 ± 0.021; NP40-soluble protein abundance (concentration: 0.5mM): 1.02 ± 0.043

Question: How did the NP40-soluble protein abundance (concentration: 0.1mM) turn out when UniProt Q7Z6L1 and related entries was run?
Answer: Its NP40-soluble protein abundance is 0.964 ± 0.031.

Question: And the NP40-soluble protein abundance (concentration: 0.5mM)?
Answer: Its NP40-soluble protein abundance is 0.948 ± 0.036.

Question: For ZCCHC9 (UniProt Q8N567), which NP40-soluble protein abundance (concentration: 0.1mM) is on record?
Answer: The NP40-soluble protein abundance was 1.03 ± 0.043.

Question: And the NP40-soluble protein abundance (concentration: 0.5mM)?
Answer: The NP40-soluble protein abundance was 1.02 ± 0.011.

Question: Which NP40-soluble protein abundance (concentration: 0.1mM) does the source give for UniProt Q86SK9 and related entries here?
Answer: Its NP40-soluble protein abundance is 0.9858 ± 0.006.

Question: And the NP40-soluble protein abundance (concentration: 0.5mM)?
Answer: Its NP40-soluble protein abundance is 0.976 ± 0.064.

Question: What does the source list for UniProt Q7Z7A1 and related entries?
Answer: NP40-soluble protein abundance (concentration: 0.1mM): 0.969 ± 0.043; NP40-soluble protein abundance (concentration: 0.5mM): 0.979 ± 0.034

Question: Which results are given for UniProt Q86VP1-2|Q86VP1-4|B8ZZD4?
Answer: NP40-soluble protein abundance (concentration: 0.1mM): 0.957 ± 0.053; NP40-soluble protein abundance (concentration: 0.5mM): 0.948 ± 0.029

Question: Which NP40-soluble protein abundance (concentration: 0.1mM) does the source give for UniProt Q86UE8-2|Q86UE8-3|J3QLK5 here?
Answer: Its NP40-soluble protein abundance is 1.01 ± 0.042.

Question: What about the NP40-soluble protein abundance (concentration: 0.5mM) of the same target?
Answer: The NP40-soluble protein abundance was 1.01 ± 0.026.

Question: Which results are given for UniProt Q86UK7 and related entries?
Answer: NP40-soluble protein abundance (concentration: 0.1mM): 1.03 ± 0.021; NP40-soluble protein abundance (concentration: 0.5mM): 1 ± 0.023

Question: Which NP40-soluble protein abundance (concentration: 0.1mM) does the source give for EXOC8 (UniProt Q8IYI6) here?
Answer: Its NP40-soluble protein abundance is 1.01 ± 0.011.

Question: What about the NP40-soluble protein abundance (concentration: 0.5mM) of the same target?
Answer: Its NP40-soluble protein abundance is 1 ± 0.034.
